Measurements reported in PubChem BioAssay AID743448 (Peter MacCallum Cancer Centre, 2014)
Shown is a random part of the 106 reagents, in one setting of the screen. 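Calls are per line and drug panel including etoposide, not vorinostat-specific; gene picks needed hits in two or more extra lines with vorinostat versus etoposide.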

- Assay: 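Find knock-downs giving vorinostat-specific cell death in several colon cancer lines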 (follow-up of hits)
- Cells: four human colon cancer cell lines: HCT116-VR (vorinostat-resistant HCT116 derivative), SW480, SW620 and LIM1215
- Reagent: siRNA pool against human genes, 40 nM siRNA pool
- Timing: drug added two days after transfection, read one day later
- Conditions: vorinostat 2.5 µM on one half of each plate, etoposide 5 µM on the other half
- Cell line and drug panel: LIM1215 cells with etoposide
- Read-out: 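Caspase luminescence and viability fluorescence, each expressed relative to mock transfection and also as robust z-scores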
- Scale: caspase ratio to mock: higher = more caspase activity than mock; viability ratio to mock: higher = more live cells than mock; caspase robust z-score: higher = more caspase activity, more apoptosis; viability robust z-score: higher = more live cells
- Rule for the call: 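Hit means caspase ratio to mock at least 1.6, or viability ratio to mock at most 0.75; wells with strong death in the absence of drug get no call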
- Calls: active = caspase or viability hit in this panel; inactive = no change, or unhealthy well

no.	gene symbol	PubChem SID	caspase ratio to mock	viability ratio to mock	caspase robust z-score	viability robust z-score	activity call
1	CAPN12	SID134311229	2.32	0.57	0.24	-2.34	inactive
2	LCE2A	SID134322845	3	1	0.83	0.5	inactive
3	MED26	SID135622229	2.99	1.02	0.85	0.7	active
4	EIF3L	SID135624088	1.48	0.76	-0.68	-1.12	inactive
5	EIF4A1	SID135623929	1.18	0.84	-1.04	-0.57	inactive
6	HSPA6	SID134323241	1.74	0.68	-0.38	-1.6	active
7	PNN	SID152155649	2.96	0.95	0.9	0.24	active
8	OSBPL6	SID134314182	3.19	1.03	1.12	0.72	active
9	INTS6L	SID152154800	1.76	0.89	-0.4	-0.23	inactive
10	AP5S1	SID134324840	2.15	0.61	-0.11	-2.05	inactive
11	EIF2S1	SID152150098	2.18	0.55	0.15	-2.53	active
12	FANCA	SID135623718	4.7	0.83	2.52	-0.62	inactive
13	VAX1	SID135625018	1.91	0.92	-0.21	-0.02	active
14	ANO9	SID135624594	2.13	1.12	0.02	1.34	active
15	CCNK	SID152155051	1.86	0.78	-0.3	-0.9	active
16	THAP1	SID135624170	1.75	1.12	-0.41	1.38	active
17	DPPA5	SID152154995	1.43	0.82	-0.62	-0.68	inactive
18	NUP205	SID152152395	4.88	0.69	2.78	-1.58	inactive
19	FLII	SID134321439	1.86	1.13	-0.2	1.34	active
20	MAGOH	SID134315673	3.36	0.82	1.23	-0.68	active
